Article doi:10.1101/2022.10.13.511954 (bioRxiv, 2022)
These are yes or no findings as the source states them, for the method shown. Binding seen in cells or lysates may run through a third protein. Some entries that bind do so weakly or less than the wild type.

By UniProt entry, the sequences of proteins in these tests, tags left out. Where a name states a change or a piece, a line headed by the entry shows the natural chain unless it says otherwise. Residues count along the entry.
UniProt P70211, 26-1447: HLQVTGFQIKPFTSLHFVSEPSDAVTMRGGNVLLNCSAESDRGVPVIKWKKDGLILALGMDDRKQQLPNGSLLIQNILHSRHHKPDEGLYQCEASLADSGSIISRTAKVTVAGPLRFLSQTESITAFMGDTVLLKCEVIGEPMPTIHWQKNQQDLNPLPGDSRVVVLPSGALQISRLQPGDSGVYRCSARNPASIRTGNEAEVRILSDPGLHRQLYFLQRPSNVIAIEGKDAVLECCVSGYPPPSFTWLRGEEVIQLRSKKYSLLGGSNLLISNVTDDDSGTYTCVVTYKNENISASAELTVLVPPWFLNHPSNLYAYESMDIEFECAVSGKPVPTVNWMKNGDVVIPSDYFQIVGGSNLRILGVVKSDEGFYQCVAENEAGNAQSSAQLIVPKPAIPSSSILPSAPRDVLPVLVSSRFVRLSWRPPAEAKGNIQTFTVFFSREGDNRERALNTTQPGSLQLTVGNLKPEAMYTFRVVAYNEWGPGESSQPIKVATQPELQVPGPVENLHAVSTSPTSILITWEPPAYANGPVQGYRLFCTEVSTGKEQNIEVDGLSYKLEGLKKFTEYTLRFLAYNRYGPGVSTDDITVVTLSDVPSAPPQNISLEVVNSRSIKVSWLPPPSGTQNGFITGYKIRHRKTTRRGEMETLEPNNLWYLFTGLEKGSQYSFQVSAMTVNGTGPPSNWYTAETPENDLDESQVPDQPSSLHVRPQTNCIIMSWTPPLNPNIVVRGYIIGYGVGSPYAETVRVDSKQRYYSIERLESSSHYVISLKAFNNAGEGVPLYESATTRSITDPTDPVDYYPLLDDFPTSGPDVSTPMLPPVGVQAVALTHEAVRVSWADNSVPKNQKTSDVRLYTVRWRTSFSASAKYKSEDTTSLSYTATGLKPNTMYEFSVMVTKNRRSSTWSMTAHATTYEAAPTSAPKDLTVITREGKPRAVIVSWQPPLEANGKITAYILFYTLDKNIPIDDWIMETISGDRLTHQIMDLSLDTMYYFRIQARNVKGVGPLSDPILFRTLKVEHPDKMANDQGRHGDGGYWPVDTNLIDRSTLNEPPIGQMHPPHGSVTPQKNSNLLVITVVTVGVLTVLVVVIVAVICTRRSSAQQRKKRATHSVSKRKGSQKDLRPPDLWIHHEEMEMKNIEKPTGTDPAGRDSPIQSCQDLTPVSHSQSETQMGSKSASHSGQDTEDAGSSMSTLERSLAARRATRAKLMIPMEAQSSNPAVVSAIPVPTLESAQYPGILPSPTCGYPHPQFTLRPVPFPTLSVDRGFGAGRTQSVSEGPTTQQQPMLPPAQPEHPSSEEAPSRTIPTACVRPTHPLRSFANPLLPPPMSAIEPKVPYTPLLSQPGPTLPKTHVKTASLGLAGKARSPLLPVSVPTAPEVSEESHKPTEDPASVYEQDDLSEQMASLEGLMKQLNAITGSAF
UniProt Q92558, whole entry: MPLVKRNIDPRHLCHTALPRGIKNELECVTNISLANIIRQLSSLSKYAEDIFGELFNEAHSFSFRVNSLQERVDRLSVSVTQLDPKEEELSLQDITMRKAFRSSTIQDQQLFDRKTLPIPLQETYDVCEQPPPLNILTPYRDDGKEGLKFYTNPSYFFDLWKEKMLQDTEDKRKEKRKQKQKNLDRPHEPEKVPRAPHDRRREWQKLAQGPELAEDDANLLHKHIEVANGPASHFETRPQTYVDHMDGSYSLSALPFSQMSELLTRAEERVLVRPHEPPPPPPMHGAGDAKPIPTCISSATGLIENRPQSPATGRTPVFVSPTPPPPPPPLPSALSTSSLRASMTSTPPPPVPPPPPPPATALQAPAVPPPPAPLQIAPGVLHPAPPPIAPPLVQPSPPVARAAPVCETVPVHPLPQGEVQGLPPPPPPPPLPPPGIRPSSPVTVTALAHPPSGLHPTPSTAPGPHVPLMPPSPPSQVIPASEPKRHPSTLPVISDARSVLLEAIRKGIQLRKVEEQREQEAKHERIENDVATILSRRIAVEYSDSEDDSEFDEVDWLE
UniProt Q5SQX6, whole entry: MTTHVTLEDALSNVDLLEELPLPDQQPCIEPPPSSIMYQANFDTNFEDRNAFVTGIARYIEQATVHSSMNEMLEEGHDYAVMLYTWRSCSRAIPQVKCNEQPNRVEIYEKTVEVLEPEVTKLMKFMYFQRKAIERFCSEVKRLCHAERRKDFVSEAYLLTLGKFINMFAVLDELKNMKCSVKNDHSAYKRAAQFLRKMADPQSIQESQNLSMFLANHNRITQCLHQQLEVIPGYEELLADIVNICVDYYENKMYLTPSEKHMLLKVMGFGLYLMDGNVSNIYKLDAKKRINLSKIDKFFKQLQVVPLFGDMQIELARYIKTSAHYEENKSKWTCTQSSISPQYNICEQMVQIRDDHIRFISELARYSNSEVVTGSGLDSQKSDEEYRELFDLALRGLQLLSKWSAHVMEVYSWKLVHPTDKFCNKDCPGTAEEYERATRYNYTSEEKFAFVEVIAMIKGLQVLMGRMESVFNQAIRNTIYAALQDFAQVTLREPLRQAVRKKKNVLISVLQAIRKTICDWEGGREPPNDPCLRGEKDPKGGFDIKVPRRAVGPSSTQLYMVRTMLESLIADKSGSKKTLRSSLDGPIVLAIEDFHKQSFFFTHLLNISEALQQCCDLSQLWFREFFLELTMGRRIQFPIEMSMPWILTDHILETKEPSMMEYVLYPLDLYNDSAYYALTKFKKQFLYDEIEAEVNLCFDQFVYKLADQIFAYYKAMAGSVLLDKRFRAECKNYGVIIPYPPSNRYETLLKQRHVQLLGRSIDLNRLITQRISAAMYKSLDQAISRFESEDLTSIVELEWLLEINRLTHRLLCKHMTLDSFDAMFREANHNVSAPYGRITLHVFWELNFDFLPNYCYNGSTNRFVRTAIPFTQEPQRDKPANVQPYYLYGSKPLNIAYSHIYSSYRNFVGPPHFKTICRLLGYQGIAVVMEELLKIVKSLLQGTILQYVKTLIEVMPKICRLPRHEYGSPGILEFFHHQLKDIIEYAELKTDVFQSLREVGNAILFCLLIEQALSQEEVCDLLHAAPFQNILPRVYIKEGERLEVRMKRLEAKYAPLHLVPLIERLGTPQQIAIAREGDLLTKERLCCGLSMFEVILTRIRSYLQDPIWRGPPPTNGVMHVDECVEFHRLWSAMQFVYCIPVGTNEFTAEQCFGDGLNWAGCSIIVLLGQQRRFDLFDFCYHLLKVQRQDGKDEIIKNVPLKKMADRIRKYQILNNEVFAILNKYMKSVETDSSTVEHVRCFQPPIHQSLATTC
UniProt P43146, whole entry, looked up, stated change not applied: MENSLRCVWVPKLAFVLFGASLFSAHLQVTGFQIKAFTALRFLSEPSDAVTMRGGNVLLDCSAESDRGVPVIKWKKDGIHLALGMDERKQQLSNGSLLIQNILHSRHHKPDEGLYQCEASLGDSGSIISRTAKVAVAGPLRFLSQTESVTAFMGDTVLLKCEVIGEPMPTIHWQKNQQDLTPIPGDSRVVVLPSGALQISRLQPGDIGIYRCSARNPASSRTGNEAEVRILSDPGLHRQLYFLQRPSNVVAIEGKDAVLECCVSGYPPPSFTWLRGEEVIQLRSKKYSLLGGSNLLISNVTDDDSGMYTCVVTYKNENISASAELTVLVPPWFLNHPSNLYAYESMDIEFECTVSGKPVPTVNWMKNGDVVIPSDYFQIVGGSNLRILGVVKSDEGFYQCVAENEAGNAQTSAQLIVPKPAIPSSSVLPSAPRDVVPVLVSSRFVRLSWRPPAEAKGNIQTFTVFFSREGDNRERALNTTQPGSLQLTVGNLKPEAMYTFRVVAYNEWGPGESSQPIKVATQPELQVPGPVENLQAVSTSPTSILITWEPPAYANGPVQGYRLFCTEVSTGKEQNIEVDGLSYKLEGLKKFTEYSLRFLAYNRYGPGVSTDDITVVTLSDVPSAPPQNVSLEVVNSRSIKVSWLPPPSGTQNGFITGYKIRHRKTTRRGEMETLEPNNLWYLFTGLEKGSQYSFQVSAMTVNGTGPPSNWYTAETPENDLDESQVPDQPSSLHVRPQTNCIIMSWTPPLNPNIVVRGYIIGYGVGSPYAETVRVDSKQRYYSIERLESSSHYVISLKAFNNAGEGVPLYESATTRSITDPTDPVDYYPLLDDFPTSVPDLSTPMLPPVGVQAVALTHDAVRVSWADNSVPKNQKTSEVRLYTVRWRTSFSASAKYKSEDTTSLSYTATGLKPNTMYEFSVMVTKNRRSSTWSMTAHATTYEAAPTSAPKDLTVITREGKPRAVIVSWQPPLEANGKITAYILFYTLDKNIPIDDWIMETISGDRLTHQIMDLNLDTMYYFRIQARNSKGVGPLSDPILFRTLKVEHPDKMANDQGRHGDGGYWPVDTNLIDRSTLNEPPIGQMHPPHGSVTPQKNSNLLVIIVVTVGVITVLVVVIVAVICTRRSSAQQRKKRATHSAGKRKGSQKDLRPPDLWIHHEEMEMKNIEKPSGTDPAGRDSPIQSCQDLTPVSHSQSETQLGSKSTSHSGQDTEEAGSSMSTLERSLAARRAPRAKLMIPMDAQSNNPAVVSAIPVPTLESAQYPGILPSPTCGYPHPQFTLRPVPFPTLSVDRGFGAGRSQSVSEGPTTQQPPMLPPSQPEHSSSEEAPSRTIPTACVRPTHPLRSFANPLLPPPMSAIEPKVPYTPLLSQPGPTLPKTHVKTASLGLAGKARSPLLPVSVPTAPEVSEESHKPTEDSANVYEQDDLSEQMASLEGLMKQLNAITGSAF
UniProt P43146, 26-1447: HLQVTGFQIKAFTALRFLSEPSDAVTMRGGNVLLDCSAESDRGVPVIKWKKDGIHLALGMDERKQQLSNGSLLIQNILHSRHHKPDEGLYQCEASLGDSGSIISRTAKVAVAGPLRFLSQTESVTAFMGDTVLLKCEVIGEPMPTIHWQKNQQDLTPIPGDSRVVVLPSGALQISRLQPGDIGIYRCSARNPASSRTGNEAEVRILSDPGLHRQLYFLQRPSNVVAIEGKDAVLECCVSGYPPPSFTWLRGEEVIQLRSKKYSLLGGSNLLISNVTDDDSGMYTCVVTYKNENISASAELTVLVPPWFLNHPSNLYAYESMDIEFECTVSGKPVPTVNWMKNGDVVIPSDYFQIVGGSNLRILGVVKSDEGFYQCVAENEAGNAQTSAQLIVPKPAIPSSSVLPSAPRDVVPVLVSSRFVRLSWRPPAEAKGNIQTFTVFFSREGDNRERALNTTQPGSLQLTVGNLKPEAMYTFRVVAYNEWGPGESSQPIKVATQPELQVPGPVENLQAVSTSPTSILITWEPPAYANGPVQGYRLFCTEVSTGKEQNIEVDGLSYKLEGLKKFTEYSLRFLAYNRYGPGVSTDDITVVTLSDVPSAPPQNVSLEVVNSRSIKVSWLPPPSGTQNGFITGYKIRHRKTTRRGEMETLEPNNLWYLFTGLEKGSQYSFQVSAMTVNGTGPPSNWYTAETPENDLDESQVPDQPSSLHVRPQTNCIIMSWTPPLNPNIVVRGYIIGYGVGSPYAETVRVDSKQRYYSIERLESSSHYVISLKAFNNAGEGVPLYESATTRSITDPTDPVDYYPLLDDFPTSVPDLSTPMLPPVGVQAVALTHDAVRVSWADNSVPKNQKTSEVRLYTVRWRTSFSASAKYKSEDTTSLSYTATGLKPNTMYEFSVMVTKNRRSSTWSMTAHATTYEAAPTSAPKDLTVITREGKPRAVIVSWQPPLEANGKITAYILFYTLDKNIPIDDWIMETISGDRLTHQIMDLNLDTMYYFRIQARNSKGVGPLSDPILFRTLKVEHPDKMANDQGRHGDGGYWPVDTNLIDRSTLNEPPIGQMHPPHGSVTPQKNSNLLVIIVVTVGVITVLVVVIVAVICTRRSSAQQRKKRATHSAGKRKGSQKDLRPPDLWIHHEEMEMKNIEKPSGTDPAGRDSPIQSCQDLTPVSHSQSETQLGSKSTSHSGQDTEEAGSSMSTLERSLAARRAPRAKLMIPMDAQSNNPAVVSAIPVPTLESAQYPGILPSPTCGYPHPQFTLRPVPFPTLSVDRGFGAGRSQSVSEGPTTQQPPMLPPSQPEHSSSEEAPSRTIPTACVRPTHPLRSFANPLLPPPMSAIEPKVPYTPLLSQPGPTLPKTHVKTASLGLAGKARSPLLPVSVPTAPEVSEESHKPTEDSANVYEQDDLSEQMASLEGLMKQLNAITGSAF

Legend:
[1] = molecular target: Dcc, endogenous in commissural neurons (not stated (endogenous in rodent commissural neurons, rat or mouse)) (UniProt P70211); test: proximity ligation
[2] = molecular target: FLAG-tagged WAVE1 (pcDNA3-Human WAVE1-Flag) (human) (UniProt Q92558); test: co-IP

“Cyfip2 subunit of the WRC, endogenous in commissural neurons (from UniProt Q5SQX6 1-1253)” was tested, and the binding [1] was “binds”.

For “DCC^R1343H (pcDNA3.1-DCC^R1343H-HA) (from UniProt P43146 26-1447) (receptor)”, the binding [2] was “binds”.

In the case of “DCC^ΔWIRS (pcDNA3-DCC^ΔWIRS-HA) (from UniProt P43146 26-1447) (receptor)”, the binding [2] is reported as “binds”.

With “HA-tagged DCC^WT (pcDNA3.1-DCC^WT-HA) (from UniProt P43146 26-1447) (receptor)” the binding [2] was “binds”.
